Laboratory results published in the supplement of paper PMC4604168 (melanoma cell lines).
The other results are listed elsewhere or left out. Repeats are few or missing, and single values can be far off.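 The apoptosis fraction was the count of cleaved-PARP antibody-stained nuclei relative to all DNA-stained nuclei, imaged in 1,536-well plates. Screening doses were set so most cells survived, and baseline and induced cleaved-PARP levels vary greatly across cell lines.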

Tests used:
Test in all cases: cleaved PARP positive nuclei fraction relative to DMSO control; melanoma cells; higher = more apoptosis
Conditions in all cases: library dose: low library concentration; 72 h
501Mel = test system: 501Mel
A101D = test system: A101D
A2058 = test system: A2058
A375 = test system: A375
C32 = test system: C32
CBRC008 = test system: CBRC008 (line from a melanoma biopsy)
CBRC014 = test system: CBRC014 (line from a melanoma biopsy)
CBRC016 = test system: CBRC016 (line from a melanoma biopsy)
CBRC017 = test system: CBRC017 (line from a melanoma biopsy)
CBRC034 = test system: CBRC034 (line from a melanoma biopsy)
COLO792 = test system: COLO792
COLO800 = test system: COLO800
COLO829 = test system: COLO829
G361 = test system: G361
IPC-298 = test system: IPC-298
IST-MEL1 = test system: IST-MEL1
LB2518-MEL = test system: LB2518-MEL
LOXIMVI = test system: LOXIMVI
MEL-HO = test system: MEL-HO

Structure (SMILES)	cleaved PARP positive nuclei fraction (501Mel)	cleaved PARP positive nuclei fraction (A101D)	cleaved PARP positive nuclei fraction (A2058)	cleaved PARP positive nuclei fraction (A375)	cleaved PARP positive nuclei fraction (C32)	cleaved PARP positive nuclei fraction (CBRC008)	cleaved PARP positive nuclei fraction (CBRC014)	cleaved PARP positive nuclei fraction (CBRC016)	cleaved PARP positive nuclei fraction (CBRC017)	cleaved PARP positive nuclei fraction (CBRC034)	cleaved PARP positive nuclei fraction (COLO792)	cleaved PARP positive nuclei fraction (COLO800)	cleaved PARP positive nuclei fraction (COLO829)	cleaved PARP positive nuclei fraction (G361)	cleaved PARP positive nuclei fraction (IPC-298)	cleaved PARP positive nuclei fraction (IST-MEL1)	cleaved PARP positive nuclei fraction (LB2518-MEL)	cleaved PARP positive nuclei fraction (LOXIMVI)	cleaved PARP positive nuclei fraction (MEL-HO)
Nc1ccn([C@@H]2O[C@H](CO)[C@@H](O)C2(F)F)c(=O)n1 [gemcitabine] + CC(=O)c1c(C)c2cnc(Nc3ccc(N4CCNCC4)cn3)nc2n(C2CCCC2)c1=O [palbociclib] (first compound 0.0004 µM, partner dose 0.04 µM)	212%	167%	120%	220%	64.3%	167%	139%	145%	124%	38.2%	116%	97.1%	141%	150%	207%	149%	133%	67.5%	86.9%
CCCS(=O)(=O)Nc1ccc(F)c(C(=O)c2c[nH]c3ncc(Cl)cc23)c1F + CC(=O)c1c(C)c2cnc(Nc3ccc(N4CCNCC4)cn3)nc2n(C2CCCC2)c1=O [palbociclib] (first compound 0.08 µM, partner dose 0.04 µM)	256%	55.8%	39.5%	599%	98.9%	126%	109%	153%	115%	63.8%	111%	59.6%	68%	203%	108%	152%	136%	164%	125%
Cc1cc(Nc2cc(N3CCN(C)CC3)nc(/C=C/c3ccccc3)n2)n[nH]1 + CS(=O)(=O)CCNCc1ccc(-c2ccc3ncnc(Nc4ccc(OCc5cccc(F)c5)c(Cl)c4)c3c2)o1 [lapatinib] (first compound 0.04 µM, partner dose 0.8 µM)	158%	287%	51.6%	96.5%	71.8%	74.1%	100%	65.5%	194%	64.6%	65.6%	165%	122%	78.6%	178%	84.9%	84.1%	105%	138%
C=C(c1ccc(C(=O)O)cc1)c1cc2c(cc1C)C(C)(C)CCC2(C)C [Bexarotene] + COc1ccc(Cl)c(Nc2nc3ccccc3nc2NS(=O)(=O)c2cccc(NC(=O)C(C)(C)N)c2)c1 [XL147] (first compound 2 µM, partner dose 0.8 µM)	58.2%	121%	107%	46%	132%	121%	456%	167%	180%	112%	43.1%	195%	123%	101%	42.5%	64.9%	195%	21.2%	89.4%
Cc1cc(Nc2cc(N3CCN(C)CC3)nc(/C=C/c3ccccc3)n2)n[nH]1 + C=CCNC1=C2C[C@@H](C)C[C@H](OC)[C@H](O)[C@@H](C)/C=C(\C)[C@H](OC(N)=O)[C@@H](OC)/C=C\C=C(/C)C(=O)NC(=CC1=O)C2=O [Tanespimycin] (first compound 0.04 µM, partner dose 0.002 µM)	88.8%	98.9%	157%	105%	88.4%	62%	93.6%	150%	125%	64.5%	127%	138%	18%	155%	28.3%	62.6%	102%	462%	80.8%
Nc1nc(F)nc2c1ncn2[C@@H]1O[C@H](CO)[C@@H](O)[C@@H]1O [fludarabine] + Cn1c(Nc2ccc(C(F)(F)F)cc2)nc2cc(Oc3ccnc(-c4ncc(C(F)(F)F)[nH]4)c3)ccc21 [CHIR265] (first compound 0.2 µM, partner dose 0.08 µM)	22000%	319%	185%	3330%	91.4%	63.1%	111%	86.9%	156%	131%	57.5%	83.3%	94.8%	152%	206%	153%	162%	184%	51%
O=C(O)[C@@H]1[O][Sb](=[O])([O][Sb]2(=[O])[O][C@H]([C@H](O)CO)[C@H](O)[C@H](C(=O)O)[O]2)[O][C@H]([C@H](O)CO)[C@@H]1O (stereo partly specified) [stibogluconate] + CCCS(=O)(=O)Nc1ccc(F)c(C(=O)c2c[nH]c3ncc(Cl)cc23)c1F [PLX4720] (first compound 2 µM, partner dose 0.08 µM)	67.2%	106%	74.9%	319%	99.4%	143%	114%	28.3%	129%	134%	84.4%	118%	34.3%	79.2%	146%	60.3%	103%	64.9%	85.1%
O=C(O)[C@@H]1[O][Sb](=[O])([O][Sb]2(=[O])[O][C@H]([C@H](O)CO)[C@H](O)[C@H](C(=O)O)[O]2)[O][C@H]([C@H](O)CO)[C@@H]1O (stereo partly specified) [stibogluconate] + C#Cc1cccc(Nc2ncnc3cc(OCCOC)c(OCCOC)cc23)c1 [erlotinib] (first compound 2 µM, partner dose 0.8 µM)	64.1%	82.4%	67.7%	79.9%	65%	76.6%	95.6%	79.4%	101%	105%	82.2%	59.4%	139%	86.2%	164%	122%	65.3%	84.6%	55.5%
CC(C)C[C@H](NC(=O)[C@H](Cc1ccccc1)NC(=O)c1cnccn1)B(O)O [Bortezomib] + Cc1nc(Nc2ncc(C(=O)Nc3c(C)cccc3Cl)s2)cc(N2CCN(CCO)CC2)n1 [dasatanib] (first compound 0.001 µM, partner dose 0.004 µM)	447%	817%	72.9%	74.7%	333%	271%	246%	182%	301%	527%	137%	124%	292%	3180%	174%	77.6%	340%	89.1%	76.8%
C[C@@H](Oc1cc(-c2cnn(C3CCNCC3)c2)cnc1N)c1c(Cl)ccc(F)c1Cl [Crizotinib] + C#Cc1cccc(Nc2ncnc3cc(OCCOC)c(OCCOC)cc23)c1 [erlotinib] (first compound 0.2 µM, partner dose 0.8 µM)	62.7%	582%	193%	109%	77.2%	109%	91.8%	68.6%	229%	72.4%	124%	42.8%	114%	152%	31.1%	116%	253%	100%	76.3%
CO[C@H]1C[C@@H]2CC[C@@H](C)[C@@](O)(O2)C(=O)C(=O)N2CCCC[C@H]2C(=O)O[C@H]([C@H](C)C[C@@H]2CC[C@@H](OCCO)[C@H](OC)C2)CC(=O)[C@H](C)/C=C(\C)[C@@H](O)[C@@H](OC)C(=O)[C@H](C)C[C@H](C)/C=C/C=C/C=C/1C [everolimus] + Clc1ccc(Nc2nnc(Cc3ccncc3)c3ccccc23)cc1 [vatalanib] (first compound 0.02 µM, partner dose 2 µM)	257%	121%	102%	776%	90.9%	264%	144%	96.6%	139%	104%	233%	86.8%	112%	411%	118%	170%	116%	134%	61.6%
CS(=O)(=O)CCNCc1ccc(-c2ccc3ncnc(Nc4ccc(OCc5cccc(F)c5)c(Cl)c4)c3c2)o1 [lapatinib] + Nc1ccn([C@@H]2O[C@H](CO)[C@@H](O)C2(F)F)c(=O)n1 [gemcitabine] (first compound 0.8 µM, partner dose 0.0004 µM)	124%	267%	73.3%	266%	65.7%	112%	115%	52%	234%	67.8%	106%	114%	166%	95.5%	46.1%	63.2%	121%	193%	407%
CC(C)C[C@H](NC(=O)[C@H](Cc1ccccc1)NC(=O)c1cnccn1)B(O)O [Bortezomib] + Nc1ncn([C@H]2C[C@H](O)[C@@H](CO)O2)c(=O)n1 [decitabine] (first compound 0.001 µM, partner dose 0.1 µM)	12100%	536%	66.9%	92.6%	90.5%	1360%	492%	969%	658%	381%	62.7%	96.2%	186%	2820%	231%	101%	1370%	190%	225%
CO[C@H]1C[C@@H]2CC[C@@H](C)[C@@](O)(O2)C(=O)C(=O)N2CCCC[C@H]2C(=O)O[C@H]([C@H](C)C[C@@H]2CC[C@@H](OCCO)[C@H](OC)C2)CC(=O)[C@H](C)/C=C(\C)[C@@H](O)[C@@H](OC)C(=O)[C@H](C)C[C@H](C)/C=C/C=C/C=C/1C [everolimus] + CC(=O)c1c(C)c2cnc(Nc3ccc(N4CCNCC4)cn3)nc2n(C2CCCC2)c1=O [palbociclib] (first compound 0.02 µM, partner dose 0.04 µM)	194%	245%	65.2%	1070%	80.3%	32.1%	104%	92.5%	118%	39.3%	238%	137%	174%	244%	24.8%	173%	73.7%	192%	89.5%

Whole records as entered above. Values in the order: cleaved PARP positive nuclei fraction (501Mel) | cleaved PARP positive nuclei fraction (A101D) | cleaved PARP positive nuclei fraction (A2058) | cleaved PARP positive nuclei fraction (A375) | cleaved PARP positive nuclei fraction (C32) | cleaved PARP positive nuclei fraction (CBRC008) | cleaved PARP positive nuclei fraction (CBRC014) | cleaved PARP positive nuclei fraction (CBRC016) | cleaved PARP positive nuclei fraction (CBRC017) | cleaved PARP positive nuclei fraction (CBRC034) | cleaved PARP positive nuclei fraction (COLO792) | cleaved PARP positive nuclei fraction (COLO800) | cleaved PARP positive nuclei fraction (COLO829) | cleaved PARP positive nuclei fraction (G361) | cleaved PARP positive nuclei fraction (IPC-298) | cleaved PARP positive nuclei fraction (IST-MEL1) | cleaved PARP positive nuclei fraction (LB2518-MEL) | cleaved PARP positive nuclei fraction (LOXIMVI) | cleaved PARP positive nuclei fraction (MEL-HO)
Nc1nc(F)nc2c1ncn2[C@@H]1O[C@H](CO)[C@@H](O)[C@@H]1O [fludarabine] + Cn1c(Nc2ccc(C(F)(F)F)cc2)nc2cc(Oc3ccnc(-c4ncc(C(F)(F)F)[nH]4)c3)ccc21 [CHIR265] (first compound 0.2 µM, partner dose 0.08 µM) is entered as 22000% | 319% | 185% | 3330% | 91.4% | 63.1% | 111% | 86.9% | 156% | 131% | 57.5% | 83.3% | 94.8% | 152% | 206% | 153% | 162% | 184% | 51%
CCCS(=O)(=O)Nc1ccc(F)c(C(=O)c2c[nH]c3ncc(Cl)cc23)c1F + CC(=O)c1c(C)c2cnc(Nc3ccc(N4CCNCC4)cn3)nc2n(C2CCCC2)c1=O [palbociclib] (first compound 0.08 µM, partner dose 0.04 µM) is entered as 256% | 55.8% | 39.5% | 599% | 98.9% | 126% | 109% | 153% | 115% | 63.8% | 111% | 59.6% | 68% | 203% | 108% | 152% | 136% | 164% | 125%
